Experimental data as given in patent publication US20120065365A1, “Stable Radiopharmaceutical Compositions and Methods for Their Preparation” (BRACCO IMAGING S.P.A., priority 2003, published 2012).
Structures can show the parent of a compound that is named as a salt.

Assay type: physicochemical
Details: ^177Lu-C converted [reduced] to ^177Lu-B, 20 mg/ml reagent solution (2% ME) in citrate buffer, room temperature

Structure (SMILES) | % Conversion in 1 day | % Conversion in 3 days
O[C@H](CS)[C@H](O)CS (racemic) [DL-Dithiothreitol] | 14.1% | 18.9%
CSCC[C@H](N)C(=O)O [L-Methionine] | 0% | 0%
N[C@@H](CS)C(=O)O [L-cysteine, L-cysteine hydrochloride monohydrate] | 5.6% | 12.8%
OCCS [ME, Mercaptoethanol] | 9.7% | 17.1%
C[Se]CC[C@H](N)C(=O)O [L-Selenomethionine] | 0% | 0%
